Results reported in the supplement of paper PMC10849652.
The list shows a part of the results.

Protein sequences, listed by entry. Tags and fused reporters are not part of them. Lines headed by an entry give the natural chain unless they say otherwise; changes in a name come on top.
UniProt P11940, whole entry, looked up: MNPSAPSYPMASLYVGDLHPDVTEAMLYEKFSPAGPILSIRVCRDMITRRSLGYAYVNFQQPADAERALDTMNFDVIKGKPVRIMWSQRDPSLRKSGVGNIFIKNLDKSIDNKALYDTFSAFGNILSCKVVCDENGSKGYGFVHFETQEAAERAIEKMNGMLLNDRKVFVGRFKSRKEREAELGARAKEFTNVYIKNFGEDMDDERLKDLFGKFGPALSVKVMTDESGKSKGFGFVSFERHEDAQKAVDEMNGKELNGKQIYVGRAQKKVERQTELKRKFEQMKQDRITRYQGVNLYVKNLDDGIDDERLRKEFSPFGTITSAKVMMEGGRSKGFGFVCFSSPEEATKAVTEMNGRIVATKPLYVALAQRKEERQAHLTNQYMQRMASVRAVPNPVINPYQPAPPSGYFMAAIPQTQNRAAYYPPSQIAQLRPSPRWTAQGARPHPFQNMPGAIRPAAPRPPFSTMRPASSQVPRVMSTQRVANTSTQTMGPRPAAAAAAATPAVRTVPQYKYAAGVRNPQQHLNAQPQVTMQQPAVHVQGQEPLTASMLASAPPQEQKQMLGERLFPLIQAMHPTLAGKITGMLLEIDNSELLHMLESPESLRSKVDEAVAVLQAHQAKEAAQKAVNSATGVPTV
UniProt P43034: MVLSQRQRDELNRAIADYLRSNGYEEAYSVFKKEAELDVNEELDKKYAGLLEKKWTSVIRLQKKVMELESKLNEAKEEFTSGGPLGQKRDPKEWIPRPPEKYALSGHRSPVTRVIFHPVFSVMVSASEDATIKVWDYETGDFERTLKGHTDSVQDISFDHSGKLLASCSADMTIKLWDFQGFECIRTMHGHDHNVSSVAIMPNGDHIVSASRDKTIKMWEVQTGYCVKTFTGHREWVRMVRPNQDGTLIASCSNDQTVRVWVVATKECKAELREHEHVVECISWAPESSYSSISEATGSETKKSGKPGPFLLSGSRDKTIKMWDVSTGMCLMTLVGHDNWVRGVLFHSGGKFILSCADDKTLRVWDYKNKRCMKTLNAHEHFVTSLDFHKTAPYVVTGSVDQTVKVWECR
UniProt O15294: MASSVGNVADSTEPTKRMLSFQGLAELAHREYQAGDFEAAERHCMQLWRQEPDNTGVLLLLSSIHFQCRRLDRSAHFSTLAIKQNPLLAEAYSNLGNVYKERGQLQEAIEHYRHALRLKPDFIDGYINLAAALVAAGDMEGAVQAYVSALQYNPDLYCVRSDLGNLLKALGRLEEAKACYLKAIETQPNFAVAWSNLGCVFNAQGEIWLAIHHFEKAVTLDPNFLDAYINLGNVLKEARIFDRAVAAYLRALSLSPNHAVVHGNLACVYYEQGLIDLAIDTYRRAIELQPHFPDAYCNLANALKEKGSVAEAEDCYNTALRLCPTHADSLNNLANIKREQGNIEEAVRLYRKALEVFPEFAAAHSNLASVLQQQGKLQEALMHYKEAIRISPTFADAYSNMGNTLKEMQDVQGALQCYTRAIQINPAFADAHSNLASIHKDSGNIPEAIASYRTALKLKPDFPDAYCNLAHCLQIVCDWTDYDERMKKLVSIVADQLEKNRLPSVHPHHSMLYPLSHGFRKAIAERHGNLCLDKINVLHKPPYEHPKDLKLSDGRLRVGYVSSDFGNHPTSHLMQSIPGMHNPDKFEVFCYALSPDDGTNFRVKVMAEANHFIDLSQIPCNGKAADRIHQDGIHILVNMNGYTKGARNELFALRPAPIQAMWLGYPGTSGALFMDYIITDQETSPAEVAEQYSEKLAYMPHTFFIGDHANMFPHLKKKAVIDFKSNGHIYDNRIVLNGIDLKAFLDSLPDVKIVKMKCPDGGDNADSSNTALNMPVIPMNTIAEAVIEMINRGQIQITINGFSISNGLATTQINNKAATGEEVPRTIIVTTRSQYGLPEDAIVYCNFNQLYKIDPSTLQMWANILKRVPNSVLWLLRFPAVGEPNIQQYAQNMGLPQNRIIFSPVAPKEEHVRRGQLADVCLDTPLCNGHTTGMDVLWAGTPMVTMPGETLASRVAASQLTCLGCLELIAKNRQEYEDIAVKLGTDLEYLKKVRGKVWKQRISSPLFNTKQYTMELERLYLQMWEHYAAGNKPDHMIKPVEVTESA
UniProt Q8N1F7: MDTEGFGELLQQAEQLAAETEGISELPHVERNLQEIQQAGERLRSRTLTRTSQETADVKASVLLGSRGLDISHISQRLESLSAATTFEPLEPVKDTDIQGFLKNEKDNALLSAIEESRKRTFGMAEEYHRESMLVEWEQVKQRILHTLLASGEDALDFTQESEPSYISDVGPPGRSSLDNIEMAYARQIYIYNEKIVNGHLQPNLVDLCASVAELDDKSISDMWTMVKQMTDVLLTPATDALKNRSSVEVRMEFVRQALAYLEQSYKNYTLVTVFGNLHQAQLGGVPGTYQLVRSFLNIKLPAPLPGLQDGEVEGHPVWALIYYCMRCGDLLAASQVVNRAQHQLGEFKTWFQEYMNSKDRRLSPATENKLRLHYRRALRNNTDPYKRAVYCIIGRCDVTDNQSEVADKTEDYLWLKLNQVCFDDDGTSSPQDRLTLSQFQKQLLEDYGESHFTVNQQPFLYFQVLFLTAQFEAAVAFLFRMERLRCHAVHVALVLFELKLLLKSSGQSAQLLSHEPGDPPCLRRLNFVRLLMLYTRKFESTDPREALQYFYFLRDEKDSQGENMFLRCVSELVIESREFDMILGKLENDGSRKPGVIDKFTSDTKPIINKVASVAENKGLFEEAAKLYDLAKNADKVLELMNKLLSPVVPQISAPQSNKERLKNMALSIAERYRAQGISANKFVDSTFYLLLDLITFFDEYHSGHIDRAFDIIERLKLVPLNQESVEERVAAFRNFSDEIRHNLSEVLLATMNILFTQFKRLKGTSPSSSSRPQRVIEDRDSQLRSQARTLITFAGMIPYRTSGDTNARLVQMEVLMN
UniProt Q969R2: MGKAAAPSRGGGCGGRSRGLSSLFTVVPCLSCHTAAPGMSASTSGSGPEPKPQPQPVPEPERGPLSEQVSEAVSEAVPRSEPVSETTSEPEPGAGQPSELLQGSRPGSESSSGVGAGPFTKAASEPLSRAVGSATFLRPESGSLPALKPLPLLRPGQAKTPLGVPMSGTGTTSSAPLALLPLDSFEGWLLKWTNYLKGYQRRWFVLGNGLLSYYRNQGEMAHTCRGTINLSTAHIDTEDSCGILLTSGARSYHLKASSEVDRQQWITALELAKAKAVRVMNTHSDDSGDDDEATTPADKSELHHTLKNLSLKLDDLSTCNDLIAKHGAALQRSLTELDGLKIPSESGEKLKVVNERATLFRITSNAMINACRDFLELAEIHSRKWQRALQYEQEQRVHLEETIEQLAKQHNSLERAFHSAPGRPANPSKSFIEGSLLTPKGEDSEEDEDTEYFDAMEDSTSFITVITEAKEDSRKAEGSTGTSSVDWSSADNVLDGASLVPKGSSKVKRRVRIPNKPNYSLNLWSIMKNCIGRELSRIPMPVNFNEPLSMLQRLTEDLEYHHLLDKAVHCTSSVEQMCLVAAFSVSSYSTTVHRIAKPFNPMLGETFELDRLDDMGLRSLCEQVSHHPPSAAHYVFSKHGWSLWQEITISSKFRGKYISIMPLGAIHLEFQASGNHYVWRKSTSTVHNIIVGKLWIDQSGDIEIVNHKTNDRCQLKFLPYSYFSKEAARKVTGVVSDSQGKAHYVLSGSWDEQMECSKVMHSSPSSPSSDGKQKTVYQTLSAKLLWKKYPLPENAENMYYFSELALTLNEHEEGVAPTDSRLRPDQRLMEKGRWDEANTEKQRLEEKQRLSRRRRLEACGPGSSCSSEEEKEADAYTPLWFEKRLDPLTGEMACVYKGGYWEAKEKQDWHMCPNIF
UniProt Q13310, whole entry, looked up: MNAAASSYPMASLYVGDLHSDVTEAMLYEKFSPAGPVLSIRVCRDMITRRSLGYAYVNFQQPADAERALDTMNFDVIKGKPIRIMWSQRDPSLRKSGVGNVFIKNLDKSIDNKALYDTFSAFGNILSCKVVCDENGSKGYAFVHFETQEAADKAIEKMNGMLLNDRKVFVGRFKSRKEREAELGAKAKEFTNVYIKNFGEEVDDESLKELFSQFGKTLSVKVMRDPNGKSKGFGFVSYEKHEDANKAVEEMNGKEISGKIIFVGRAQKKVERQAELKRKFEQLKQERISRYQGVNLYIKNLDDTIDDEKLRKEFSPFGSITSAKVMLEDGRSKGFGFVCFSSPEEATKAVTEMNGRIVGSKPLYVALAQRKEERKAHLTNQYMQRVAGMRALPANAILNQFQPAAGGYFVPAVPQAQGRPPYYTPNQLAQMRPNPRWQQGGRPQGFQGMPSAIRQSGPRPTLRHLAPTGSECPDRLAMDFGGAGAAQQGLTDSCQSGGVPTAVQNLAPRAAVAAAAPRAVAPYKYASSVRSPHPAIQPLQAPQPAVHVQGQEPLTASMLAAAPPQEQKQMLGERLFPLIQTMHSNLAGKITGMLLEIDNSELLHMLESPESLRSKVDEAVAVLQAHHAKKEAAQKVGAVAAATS
UniProt Q9H6K4: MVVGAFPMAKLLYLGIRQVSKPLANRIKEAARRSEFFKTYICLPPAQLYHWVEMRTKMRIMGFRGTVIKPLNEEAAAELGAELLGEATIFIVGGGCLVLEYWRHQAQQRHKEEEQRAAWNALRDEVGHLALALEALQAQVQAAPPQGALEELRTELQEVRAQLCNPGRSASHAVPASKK
UniProt P68402: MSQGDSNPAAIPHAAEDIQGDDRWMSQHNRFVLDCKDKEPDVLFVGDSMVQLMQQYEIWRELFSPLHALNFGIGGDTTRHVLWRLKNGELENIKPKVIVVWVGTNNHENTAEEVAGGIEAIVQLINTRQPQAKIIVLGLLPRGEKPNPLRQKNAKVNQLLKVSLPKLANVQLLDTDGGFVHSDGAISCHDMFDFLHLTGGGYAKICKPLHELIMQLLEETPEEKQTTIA
UniProt Q13416: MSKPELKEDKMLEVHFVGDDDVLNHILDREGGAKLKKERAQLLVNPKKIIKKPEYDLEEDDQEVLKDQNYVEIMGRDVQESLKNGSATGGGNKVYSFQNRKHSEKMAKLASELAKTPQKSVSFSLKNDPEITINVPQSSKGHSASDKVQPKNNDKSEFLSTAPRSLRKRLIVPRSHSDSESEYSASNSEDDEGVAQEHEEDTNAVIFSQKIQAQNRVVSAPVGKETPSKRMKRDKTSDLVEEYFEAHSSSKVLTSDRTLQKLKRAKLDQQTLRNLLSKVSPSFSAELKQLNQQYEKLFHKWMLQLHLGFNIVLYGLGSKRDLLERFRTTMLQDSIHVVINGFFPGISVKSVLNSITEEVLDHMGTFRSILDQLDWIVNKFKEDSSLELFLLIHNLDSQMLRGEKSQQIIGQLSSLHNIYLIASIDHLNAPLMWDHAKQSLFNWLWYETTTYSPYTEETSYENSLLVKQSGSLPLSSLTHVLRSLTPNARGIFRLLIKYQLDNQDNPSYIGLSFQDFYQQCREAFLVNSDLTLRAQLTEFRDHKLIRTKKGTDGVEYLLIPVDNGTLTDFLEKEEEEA
UniProt Q9NVE7: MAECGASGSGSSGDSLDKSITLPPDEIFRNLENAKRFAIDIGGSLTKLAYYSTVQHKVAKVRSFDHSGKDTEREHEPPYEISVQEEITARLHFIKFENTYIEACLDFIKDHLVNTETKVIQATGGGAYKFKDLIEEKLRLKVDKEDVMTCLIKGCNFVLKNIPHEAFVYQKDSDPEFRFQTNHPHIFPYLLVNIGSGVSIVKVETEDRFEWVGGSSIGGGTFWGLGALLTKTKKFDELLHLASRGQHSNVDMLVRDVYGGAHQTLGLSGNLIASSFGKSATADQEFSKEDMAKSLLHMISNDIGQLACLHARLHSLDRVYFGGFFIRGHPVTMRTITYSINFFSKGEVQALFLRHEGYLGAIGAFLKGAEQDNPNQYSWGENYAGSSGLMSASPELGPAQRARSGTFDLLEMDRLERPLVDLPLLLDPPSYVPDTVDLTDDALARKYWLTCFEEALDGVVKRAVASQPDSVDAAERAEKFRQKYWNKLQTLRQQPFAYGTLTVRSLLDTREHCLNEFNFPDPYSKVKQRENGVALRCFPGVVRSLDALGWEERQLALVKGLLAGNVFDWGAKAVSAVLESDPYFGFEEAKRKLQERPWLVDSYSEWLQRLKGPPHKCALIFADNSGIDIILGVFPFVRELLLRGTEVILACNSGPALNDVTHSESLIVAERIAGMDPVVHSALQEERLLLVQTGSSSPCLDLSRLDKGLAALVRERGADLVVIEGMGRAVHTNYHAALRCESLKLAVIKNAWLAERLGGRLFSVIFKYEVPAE
UniProt Q9NPF4: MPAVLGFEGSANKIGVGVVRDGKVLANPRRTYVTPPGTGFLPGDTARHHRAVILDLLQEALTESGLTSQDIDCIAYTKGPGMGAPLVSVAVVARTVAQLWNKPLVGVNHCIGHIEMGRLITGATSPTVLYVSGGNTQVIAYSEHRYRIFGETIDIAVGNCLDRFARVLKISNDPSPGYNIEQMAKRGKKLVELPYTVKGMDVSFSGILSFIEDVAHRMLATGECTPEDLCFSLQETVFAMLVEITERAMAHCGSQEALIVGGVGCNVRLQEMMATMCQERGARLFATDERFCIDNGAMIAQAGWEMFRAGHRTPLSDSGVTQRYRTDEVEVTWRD

Key:
Test in all cases: log2 fold change, soluble protein after heating vs DMSO (PISA); higher = thermal stabilisation; K562 lysate, 10 uM; active = over 0.2 and 3.5 SD of the protein, either way, in both replicates (recomputed)
[1] = compound: C=CC(=O)N1CCC[C@@H](n2nc(-c3ccc(Oc4ccccc4)cc3)c3c(N)ncnc32)C1 [ibrutinib]
Outline: (§1)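 Soluble protein was defined as the supernatant remaining after 21,000xg for 90 min, following pooling of heated aliquots and adjustment to 0.5% NP-40 at 4°C. Before that, crude K562 extract at 1 mg/mL protein in PBS pH 7.4 with 1 mM MgCl2 was treated with 10 μM compound for 30 min and heated for 3 min across 48°C-58°C. Quantification used TMTpro 16plex LC-MS/MS with channel sums equalised, and values are log-two fold changes in thermal stability relative to solvent controls from duplicates.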

[2] = compound: CC(=O)c1cnc2ccc(-c3cc(Cl)c(O)c(Cl)c3)nc2c1N[C@H]1CC[C@H](CN(C)C)CC1
Outline: as §1

[3] = compound: CC(C)(C)Cn1c(N)nc2ccc(-c3[nH]c(C(C)(C)C)nc3-c3ccc(F)cc3)nc21 [ralimetinib]
Outline: as §1

[4] = compound: CC(C)(O)CC(=O)NCCn1ccc2ncnc(Nc3ccc(Oc4cccc(C(F)(F)F)c4)c(Cl)c3)c21
Outline: as §1

[5] = compound: CC(C)C1=C2N=C(C=C(N2N=C1)NCC3=CC=CC=C3)NCCCCCCN
Outline: as §1

[6] = compound: CC1=C(C(CC(=O)N1)C2=CC=C(C=C2)C(F)(F)F)C(=O)NC3=C(C=C4C(=C3)C=NN4)F
Outline: as §1

[7] = compound: CC1=C(C2=C(C=C1)C(=O)C3=CC=CC=C3N2CCCN)C
Outline: as §1

[8] = compound: CC1=C(C=C(C=C1)NC(=O)C2=CC(=CC=C2)C(C)(C)C#N)NC3=CC4=C(C=C3)N=CN(C4=O)C
Outline: as §1

[9] = compound: CC1=C(C=C(C=C1)NC(=O)C2=CC(=CC=C2)N(C)C)NC(=O)C3=CC=C(C=C3)O
Outline: as §1

[10] = compound: CC1=CC=C(C=C1)SC2=C3C=C(SC3=CN=C2)C(=O)N
Outline: as §1

Target | log2 fold change [1] | log2 fold change [2] | log2 fold change [3] | log2 fold change [4] | log2 fold change [5] | log2 fold change [6] | log2 fold change [7] | log2 fold change [8] | log2 fold change [9] | log2 fold change [10]
NUP43 (UniProt Q8NFH3) | inactive: 0.046 | inactive: -0.006 | inactive: 0.027 | inactive: -0.013 | inactive: 0.009 | inactive: -0.013 | inactive: 0 | inactive: 0.011 | inactive: 0.001 | inactive: -0.014
OXA1L (UniProt Q15070) | inactive: 0 | inactive: 0.034 | inactive: -0.006 | inactive: -0.05 | inactive: -0.084 | inactive: 0.039 | inactive: 0.004 | inactive: 0.024 | inactive: 0.007 | inactive: 0.059
OTUD7B (UniProt Q6GQQ9) | inactive: -0.008 | inactive: 0.004 | inactive: 0.026 | inactive: 0.005 | inactive: -0.034 | inactive: -0.011 | inactive: -0.019 | active: 0.239 | inactive: 0 | inactive: 0.047
PABPC1 (UniProt P11940) | inactive: -0.002 | inactive: 0.004 | inactive: -0.014 | inactive: 0.002 | inactive: -0.015 | inactive: -0.028 | inactive: 0.022 | inactive: -0.054 | inactive: 0.009 | inactive: 0.024
PAICS (UniProt P22234) | inactive: -0.003 | inactive: 0.006 | inactive: -0.008 | inactive: -0.013 | inactive: 0.011 | inactive: -0.017 | inactive: -0.003 | inactive: -0.02 | inactive: -0.019 | inactive: -0.009
NUP37 (UniProt Q8NFH4) | inactive: -0.052 | inactive: -0.008 | inactive: 0.005 | inactive: 0.013 | inactive: -0.002 | inactive: 0.016 | inactive: 0.009 | inactive: -0.007 | inactive: -0.01 | inactive: 0
PAFAH1B1 (UniProt P43034) | inactive: 0.012 | inactive: -0.005 | inactive: 0.002 | inactive: 0.052 | inactive: -0.038 | inactive: -0.009 | inactive: 0.007 | inactive: -0.035 | inactive: 0.015 | inactive: -0.011
NUSAP1 (UniProt Q9BXS6) | inactive: -0.003 | inactive: -0.022 | inactive: 0.023 | inactive: -0.014 | inactive: -0.006 | inactive: -0.02 | inactive: -0.017 | inactive: -0.004 | inactive: 0.016 | inactive: -0.023
NUP54 (UniProt Q7Z3B4) | inactive: 0.028 | inactive: 0.015 | inactive: -0.023 | inactive: -0.039 | inactive: 0.019 | inactive: 0.025 | inactive: 0.016 | inactive: -0.032 | inactive: 0.008 | inactive: -0.023
OGT (UniProt O15294) | inactive: -0.035 | inactive: -0.024 | inactive: 0.021 | inactive: 0.023 | inactive: -0.007 | inactive: -0.009 | inactive: -0.026 | inactive: -0.014 | inactive: 0.032 | inactive: -0.005
NUP93 (UniProt Q8N1F7) | inactive: -0.013 | inactive: 0.007 | inactive: 0.036 | inactive: -0.015 | inactive: 0 | inactive: 0.027 | inactive: 0.019 | inactive: -0.029 | inactive: 0.036 | inactive: 0
PAK1 (UniProt Q13153) | inactive: 0.067 | inactive: -0.011 | inactive: 0.001 | inactive: 0.004 | inactive: -0.108 | inactive: -0.003 | inactive: -0.018 | inactive: 0.041 | inactive: 0.008 | inactive: 0.009
OXNAD1 (UniProt Q96HP4) | inactive: -0.026 | inactive: -0.007 | inactive: 0.05 | inactive: 0.05 | inactive: 0.006 | inactive: 0.003 | inactive: -0.021 | inactive: 0.032 | inactive: 0.001 | inactive: 0.028
OXSM (UniProt Q9NWU1) | inactive: 0.022 | inactive: 0.013 | inactive: -0.006 | inactive: -0.032 | inactive: -0.037 | inactive: 0.016 | inactive: -0.003 | inactive: 0.032 | inactive: -0.022 | inactive: -0.016
OSBP2 (UniProt Q969R2) | inactive: 0 | inactive: 0.077 | inactive: 0.036 | inactive: -0.103 | inactive: -0.223 | inactive: -0.006 | inactive: 0.023 | inactive: 0.051 | inactive: -0.011 | inactive: 0
PAFAH2 (UniProt Q99487) | inactive: -0.039 | inactive: 0.158 | inactive: -0.038 | inactive: 0.032 | inactive: -0.022 | inactive: 0.065 | inactive: -0.062 | inactive: 0.018 | inactive: 0.019 | inactive: -0.016
PABPC4 isoform 3 (UniProt Q13310) | inactive: -0.011 | inactive: -0.027 | inactive: -0.008 | inactive: 0.022 | inactive: -0.019 | inactive: -0.019 | inactive: -0.002 | inactive: -0.038 | inactive: -0.003 | inactive: 0.03
OPA3 (UniProt Q9H6K4) | inactive: -0.014 | inactive: 0.008 | inactive: 0.037 | inactive: -0.053 | inactive: -0.021 | inactive: 0.08 | inactive: -0.002 | inactive: 0.05 | inactive: 0.044 | inactive: 0.086
NUP62 (UniProt P37198) | inactive: 0.073 | inactive: 0.033 | inactive: -0.013 | inactive: -0.023 | inactive: -0.017 | inactive: 0.016 | inactive: 0.04 | inactive: -0.07 | inactive: 0.014 | inactive: -0.027
PAFAH1B2 (UniProt P68402) | inactive: -0.006 | inactive: -0.064 | inactive: -0.013 | inactive: -0.071 | inactive: -0.031 | inactive: -0.012 | inactive: -0.018 | inactive: 0.032 | inactive: 0.02 | inactive: -0.026
PAN2 isoform 2 (UniProt Q504Q3) | inactive: -0.141 | inactive: 0.036 | inactive: 0.022 | inactive: -0.022 | inactive: -0.025 | inactive: 0.022 | inactive: 0.015 | inactive: 0.012 | inactive: -0.038 | inactive: 0.027
NUP160 (UniProt Q12769) | inactive: 0.063 | inactive: -0.007 | inactive: 0.062 | inactive: 0.017 | inactive: -0.021 | inactive: 0.01 | inactive: 0.005 | inactive: 0.012 | inactive: -0.021 | inactive: 0.001
ORC2 (UniProt Q13416) | inactive: 0.012 | inactive: -0.011 | inactive: 0.044 | inactive: 0.032 | inactive: -0.014 | inactive: 0.016 | inactive: -0.089 | inactive: -0.005 | inactive: -0.014 | inactive: 0.021
PANK4 (UniProt Q9NVE7) | inactive: 0.039 | inactive: 0.001 | inactive: 0.023 | inactive: -0.008 | inactive: 0.036 | inactive: -0.01 | inactive: -0.024 | inactive: -0.001 | inactive: -0.005 | inactive: -0.005
OSGEP (UniProt Q9NPF4) | inactive: -0.009 | inactive: 0.02 | inactive: 0.022 | inactive: -0.03 | inactive: -0.003 | inactive: 0 | inactive: 0.001 | inactive: 0.012 | inactive: -0.057 | inactive: -0.002
PAK4 (UniProt O96013) | inactive: 0.049 | inactive: 0.372 | inactive: -0.016 | inactive: -0.001 | inactive: -0.102 | inactive: 0.023 | inactive: -0.087 | inactive: -0.064 | inactive: -0.012 | inactive: 0.034
NUTF2 (UniProt P61970) | inactive: -0.012 | inactive: 0.031 | inactive: 0.024 | inactive: -0.014 | inactive: 0.007 | inactive: -0.058 | inactive: 0.04 | inactive: 0.04 | inactive: -0.018 | inactive: 0.055
PA2G4 (UniProt Q9UQ80) | inactive: -0.008 | inactive: -0.002 | inactive: 0.004 | inactive: 0.005 | inactive: 0.01 | inactive: -0.02 | inactive: -0.009 | inactive: -0.017 | inactive: 0.002 | inactive: 0.017
PARD6B (UniProt Q9BYG5) | inactive: -0.011 | inactive: -0.008 | inactive: 0.007 | inactive: -0.006 | inactive: -0.003 | inactive: 0.023 | inactive: 0.009 | inactive: 0.058 | inactive: -0.02 | inactive: 0.016
OSTM1 (UniProt Q86WC4) | inactive: -0.038 | inactive: 0.019 | inactive: -0.07 | inactive: 0.012 | inactive: -0.04 | inactive: 0.006 | inactive: 0.034 | inactive: -0.093 | inactive: 0.065 | inactive: 0

Reprinted from the listing for reference:
Target | log2 fold change [1] | log2 fold change [2] | log2 fold change [3] | log2 fold change [4] | log2 fold change [5] | log2 fold change [6] | log2 fold change [7] | log2 fold change [8] | log2 fold change [9] | log2 fold change [10]
NUP43 (UniProt Q8NFH3) | inactive: 0.046 | inactive: -0.006 | inactive: 0.027 | inactive: -0.013 | inactive: 0.009 | inactive: -0.013 | inactive: 0 | inactive: 0.011 | inactive: 0.001 | inactive: -0.014
OXA1L (UniProt Q15070) | inactive: 0 | inactive: 0.034 | inactive: -0.006 | inactive: -0.05 | inactive: -0.084 | inactive: 0.039 | inactive: 0.004 | inactive: 0.024 | inactive: 0.007 | inactive: 0.059
